Experimental data published in the supplement of paper PMC7877785.
± gives the uncertainty stated by the source. Many entries were measured with a wide error.

Test: self-splicing fitness, log relative to wild type (ln ratio); higher = more splicing; Tetrahymena group I intron in knt gene, E. coli kanamycin selection, DiMSum; sequences stand for … in CUCUCU…GGAGGGAAAAGUUAUCAGGCAUGCACCUGGUAGCUAGUCUUUAAACCAAUAGAUUGCAUCGGUUUAAAAGGCAAGACCGUCAAAUUGCGGGAAAGGGGUCAACAGCCGUUCAGUACCAAGUCUCAGGGGAAACUUUGAGAUGGCCUUGCAAAGGGUAUGGUAAUAAGCUGACGGACAUGGUCCUAACCACGCAGCCAAGUCCUAAGUCAACAGAUCUUCUGUUGAUAUGGAUGCAGUUCACAGACUAAAUGUCGGUCGGGGAAGAUGUAUUCUUCUCAUAAGAUAUAGUCGGACCUCUCCUUAAUGGGAGCUAGCGGAUGAAGUGAUGCAACACUGGAGCCGCUGGGAACUAAUUUGUAUGCGAAAGUAUAUUGAUUAGUUUUGGAGUACUCGUGGUCG
How it was run: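 Fitness was computed with DiMSum as the error-weighted combination of replicate fold changes, kanamycin versus none, each normalised to wild type. The library randomised all eight intron nucleotides of the P1ex region, with the intron placed in the knt kanamycin-resistance gene on pET-22b(+) in E. coli BL21(DE3). Six replicate transformations were grown overnight at 37°C or 30°C on LB agar with or without 25 μg/mL kanamycin, plus 100 μg/mL carbenicillin, 50 μM IPTG and 0.2% rhamnose. Pooled colonies were amplicon-sequenced on an Illumina HiSeq 2500.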

CGGGAGCAAUAUUACGUAUC
self-splicing fitness (ln) (37 °C): -1.74 ± 0.53

GUUGAGCAAUAUUACGAGUU
self-splicing fitness (ln) (30 °C): -4.07 ± 0.6

CUGGAGCAAUAUUACGGAAU
self-splicing fitness (ln) (30 °C): -4.19 ± 0.73 | self-splicing fitness (ln) (37 °C): -2.05 ± 0.36

CGCUAGCAAUAUUACGUCCC
self-splicing fitness (ln) (30 °C): -2.63 ± 0.16 | self-splicing fitness (ln) (37 °C): -1.54 ± 0.19

CUGGAGCAAUAUUACGAACU
self-splicing fitness (ln) (37 °C): -1.79 ± 1.2

GUGUAGCAAUAUUACGACAG
self-splicing fitness (ln) (37 °C): -2.91 ± 0.65

UCGGAGCAAUAUUACGGGUC
self-splicing fitness (ln) (30 °C): -3.32 ± 0.53 | self-splicing fitness (ln) (37 °C): -2.52 ± 0.55

CGAGAGCAAUAUUACGAAGU
self-splicing fitness (ln) (30 °C): -4.35 ± 1

GCACAGCAAUAUUACGAUAU
self-splicing fitness (ln) (30 °C): -0.993 ± 0.056 | self-splicing fitness (ln) (37 °C): -0.54 ± 0.071

UGCCAGCAAUAUUACGGCAG
self-splicing fitness (ln) (30 °C): -2.25 ± 0.093 | self-splicing fitness (ln) (37 °C): -1.15 ± 0.1

GUUUAGCAAUAUUACGCAGC
self-splicing fitness (ln) (30 °C): -2.09 ± 1.4 | self-splicing fitness (ln) (37 °C): -0.681 ± 1

GCACAGCAAUAUUACGUGCC
self-splicing fitness (ln) (37 °C): -3.45 ± 0.6

GGGUAGCAAUAUUACGUUAG
self-splicing fitness (ln) (30 °C): -3.63 ± 0.52

AAUUAGCAAUAUUACGAAGC
self-splicing fitness (ln) (37 °C): -2.47 ± 0.54

CCUAAGCAAUAUUACGCCAC
self-splicing fitness (ln) (37 °C): -1.69 ± 0.57

CCCGAGCAAUAUUACGAAUA
self-splicing fitness (ln) (30 °C): -3.44 ± 0.2 | self-splicing fitness (ln) (37 °C): -2.89 ± 0.21

UUUGAGCAAUAUUACGUUGA
self-splicing fitness (ln) (30 °C): -3.91 ± 0.62

UGGAAGCAAUAUUACGCUCU
self-splicing fitness (ln) (30 °C): -2.95 ± 0.83

GUGGAGCAAUAUUACGUUGC
self-splicing fitness (ln) (37 °C): -2.08 ± 1.1

CUUAAGCAAUAUUACGGUAA
self-splicing fitness (ln) (30 °C): -3.28 ± 0.53

CUGCAGCAAUAUUACGUAGC
self-splicing fitness (ln) (30 °C): -2.66 ± 0.15 | self-splicing fitness (ln) (37 °C): -1.95 ± 0.18

UAGUAGCAAUAUUACGAUUC
self-splicing fitness (ln) (30 °C): -2.48 ± 0.78 | self-splicing fitness (ln) (37 °C): -1.91 ± 0.52

UAAUAGCAAUAUUACGGAAA
self-splicing fitness (ln) (30 °C): -3.14 ± 0.61

UGCGAGCAAUAUUACGGAUU
self-splicing fitness (ln) (30 °C): -4.27 ± 0.51

GAGAAGCAAUAUUACGAAAC
self-splicing fitness (ln) (30 °C): -2.29 ± 0.36 | self-splicing fitness (ln) (37 °C): -1.71 ± 0.48

CCCUAGCAAUAUUACGCAGC
self-splicing fitness (ln) (30 °C): -3 ± 0.17 | self-splicing fitness (ln) (37 °C): -3.24 ± 0.35

GCAUAGCAAUAUUACGAUGU
self-splicing fitness (ln) (30 °C): -2.82 ± 0.13 | self-splicing fitness (ln) (37 °C): -2.31 ± 0.17

UGCGAGCAAUAUUACGGAAC
self-splicing fitness (ln) (30 °C): -3.98 ± 0.72

UCUAAGCAAUAUUACGCCGC
self-splicing fitness (ln) (30 °C): -2.69 ± 0.29 | self-splicing fitness (ln) (37 °C): -3.38 ± 0.53

AUUUAGCAAUAUUACGGAGA
self-splicing fitness (ln) (30 °C): -1.52 ± 1.2 | self-splicing fitness (ln) (37 °C): -0.831 ± 0.61

CAGAAGCAAUAUUACGCAAC
self-splicing fitness (ln) (30 °C): -4.44 ± 0.58

UUUUAGCAAUAUUACGAGAC
self-splicing fitness (ln) (30 °C): -3.86 ± 0.61 | self-splicing fitness (ln) (37 °C): -0.692 ± 0.55

CGAUAGCAAUAUUACGGCCC
self-splicing fitness (ln) (30 °C): -0.844 ± 1 | self-splicing fitness (ln) (37 °C): 0.445 ± 0.86

UUAGAGCAAUAUUACGAAAG
self-splicing fitness (ln) (30 °C): -2.9 ± 0.4 | self-splicing fitness (ln) (37 °C): -0.494 ± 0.35

CUCUAGCAAUAUUACGCAUA
self-splicing fitness (ln) (30 °C): -2.83 ± 0.51 | self-splicing fitness (ln) (37 °C): -3.87 ± 0.72

UGGAAGCAAUAUUACGAGGC
self-splicing fitness (ln) (37 °C): -2.48 ± 1.1

CAGGAGCAAUAUUACGAAAA
self-splicing fitness (ln) (37 °C): -2.57 ± 1.1

CAUCAGCAAUAUUACGCCAC
self-splicing fitness (ln) (30 °C): -2.77 ± 0.46 | self-splicing fitness (ln) (37 °C): -2.22 ± 0.43

CGGAAGCAAUAUUACGCAAU
self-splicing fitness (ln) (30 °C): -3 ± 0.26 | self-splicing fitness (ln) (37 °C): -2.69 ± 0.26

GCGAAGCAAUAUUACGCCCU
self-splicing fitness (ln) (30 °C): -3.14 ± 0.76

UAGUAGCAAUAUUACGCGGC
self-splicing fitness (ln) (30 °C): -3.16 ± 1 | self-splicing fitness (ln) (37 °C): -0.949 ± 0.55

AGUUAGCAAUAUUACGCUUG
self-splicing fitness (ln) (30 °C): -4.14 ± 0.51 | self-splicing fitness (ln) (37 °C): -1.83 ± 0.23

CUGAAGCAAUAUUACGUUCC
self-splicing fitness (ln) (30 °C): -4.8 ± 0.58

UUAUAGCAAUAUUACGCGCU
self-splicing fitness (ln) (30 °C): -2.25 ± 0.14 | self-splicing fitness (ln) (37 °C): -1.55 ± 0.13

UCGGAGCAAUAUUACGCCUA
self-splicing fitness (ln) (30 °C): -2.08 ± 0.8 | self-splicing fitness (ln) (37 °C): -0.974 ± 0.59

UCGGAGCAAUAUUACGAGUU
self-splicing fitness (ln) (37 °C): -2.45 ± 0.55

UCCGAGCAAUAUUACGAACA
self-splicing fitness (ln) (37 °C): -1.74 ± 0.66

UCCUAGCAAUAUUACGAAUG
self-splicing fitness (ln) (30 °C): -2.58 ± 0.8

GUGGAGCAAUAUUACGCAUC
self-splicing fitness (ln) (30 °C): -3.82 ± 1

AAAGAGCAAUAUUACGCUCA
self-splicing fitness (ln) (30 °C): -2.88 ± 0.58

UGCUAGCAAUAUUACGCAGG
self-splicing fitness (ln) (30 °C): -2.73 ± 0.76 | self-splicing fitness (ln) (37 °C): -2.78 ± 0.75

CCAGAGCAAUAUUACGCACA
self-splicing fitness (ln) (30 °C): -3.85 ± 0.74 | self-splicing fitness (ln) (37 °C): -0.693 ± 1.4

UUUUAGCAAUAUUACGAUUG
self-splicing fitness (ln) (30 °C): -1.52 ± 0.14 | self-splicing fitness (ln) (37 °C): -0.255 ± 0.16

GAGGAGCAAUAUUACGCCGU
self-splicing fitness (ln) (37 °C): -1.54 ± 0.82

UCGUAGCAAUAUUACGCCAG
self-splicing fitness (ln) (37 °C): -1.79 ± 0.53

GUUAAGCAAUAUUACGAGGU
self-splicing fitness (ln) (30 °C): -4.03 ± 0.6

CGAGAGCAAUAUUACGCUAA
self-splicing fitness (ln) (37 °C): -1.01 ± 0.59
